Data as given in PubChem BioAssay AID1259308 (NCATS, 2017).

- Test: 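Knock-downs that increase output of a recombinant reporter protein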 (primary screen)
- Cell system: human HEK293 embryonic kidney cells stably expressing firefly luciferase (HEK-CMV-Luc2-Hygro)
- Reagents: single siRNA against human genes, 0.8 pmol siRNA per well
- Time to read-out: 72 h
- Measured: 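Reporter luminescence and viable-cell signal on separate replicate plates, given as percent of non-targeting control and median/MAD z-scores, plus per-cell luciferase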
- Direction: total luciferase, z-score and total luciferase, % of control: higher = more reporter protein produced
- Call rule: 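An siRNA counts as active if its total luciferase robust z-score exceeds 3; genes with two or more such siRNAs out of three were retested with fresh siRNAs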
- Calls: active = raised luciferase; inactive = no rise
This is a random part of about 59,000 reagents. In the full data, about 1,510 (2.6%) were called active. 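Calls use total luciferase alone and ignore viability, so some active siRNAs may act by altering cell number.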 Unmarked entries are inactive. Not all columns of the deposit are shown. Reagent sequences are not shown.

EPCAM (epithelial cell adhesion molecule) [SID160776822] gave total luciferase, z-score 3.12 (active); total luciferase, % of control 144.
EPCAM (epithelial cell adhesion molecule) [SID160776823] showed total luciferase, z-score -0.69; total luciferase, % of control 68.2.
With knock-down of EPCAM (epithelial cell adhesion molecule) [SID160776824] the results were total luciferase, z-score -0.393; total luciferase, % of control 74.1.
IL31RA (interleukin 31 receptor A) [SID160757241] scored total luciferase, z-score 1.84; total luciferase, % of control 118.
IL31RA (interleukin 31 receptor A) [SID160757242] showed total luciferase, z-score 0.45; total luciferase, % of control 90.8.
IL31RA (interleukin 31 receptor A) [SID160757243] gave total luciferase, z-score -0.155; total luciferase, % of control 78.8.
Against DCXR (dicarbonyl and L-xylulose reductase) [SID160740261], the values are total luciferase, z-score -0.457; total luciferase, % of control 72.8.
DCXR (dicarbonyl and L-xylulose reductase) [SID160740262] scored total luciferase, z-score 0.43; total luciferase, % of control 90.4.
With knock-down of DCXR (dicarbonyl and L-xylulose reductase) [SID160740263], the record shows total luciferase, z-score -0.0802; total luciferase, % of control 80.3.
For BMPR1B (bone morphogenetic protein receptor type 1B) [SID160728412], the entry reads total luciferase, z-score -0.94; total luciferase, % of control 63.2.
BMPR1B (bone morphogenetic protein receptor type 1B) [SID160728422] gave total luciferase, z-score 0.326; total luciferase, % of control 88.4.
For BMPR1B (bone morphogenetic protein receptor type 1B) [SID160728433], the values are total luciferase, z-score 1.16; total luciferase, % of control 105.
Against ISOC1 (isochorismatase domain containing 1) [SID160739856], the entry reads total luciferase, z-score 6.93 (active); total luciferase, % of control 220.
After knock-down of ISOC1 (isochorismatase domain containing 1) [SID160739857], the record shows total luciferase, z-score -0.535; total luciferase, % of control 71.2.
Knock-down of ISOC1 (isochorismatase domain containing 1) [SID160739858] gave: total luciferase, z-score -0.846; total luciferase, % of control 65.1.
For MYO3B (myosin IIIB) [SID160757783], the entry reads total luciferase, z-score -0.354; total luciferase, % of control 74.9.
Against MYO3B (myosin IIIB) [SID160757784], the values are total luciferase, z-score 2; total luciferase, % of control 122.
With knock-down of MYO3B (myosin IIIB) [SID160757785], the record shows total luciferase, z-score 1.41; total luciferase, % of control 110.
Silencing of CRCT1 (cysteine rich C-terminal 1) [SID160724436] resulted in: total luciferase, z-score 0.808; total luciferase, % of control 98.
Depletion of CRCT1 (cysteine rich C-terminal 1) [SID160741897] came out at: total luciferase, z-score -0.924; total luciferase, % of control 63.5.
Knock-down of CRCT1 (cysteine rich C-terminal 1) [SID160741898] resulted in: total luciferase, z-score -1.78; total luciferase, % of control 46.5.
After knock-down of TMEM182 (transmembrane protein 182) [SID160757008] the results were total luciferase, z-score 0.0323; total luciferase, % of control 82.5.
Knock-down of TMEM182 (transmembrane protein 182) [SID160757009] resulted in: total luciferase, z-score 2.58; total luciferase, % of control 133.
With knock-down of TMEM182 (transmembrane protein 182) [SID160757010], the screen gave total luciferase, z-score 0.334; total luciferase, % of control 88.5.
With knock-down of PMPCA (peptidase, mitochondrial processing subunit alpha) [SID160730832], the screen gave total luciferase, z-score 4.44 (active); total luciferase, % of control 170.
Silencing of PMPCA (peptidase, mitochondrial processing subunit alpha) [SID160746153] gave: total luciferase, z-score 0.146; total luciferase, % of control 84.8.
Knock-down of PMPCA (peptidase, mitochondrial processing subunit alpha) [SID160746261] resulted in: total luciferase, z-score -0.0322; total luciferase, % of control 81.2.
Depletion of LUZP4 (leucine zipper protein 4) [SID160740335] resulted in: total luciferase, z-score 0.664; total luciferase, % of control 95.1.
With knock-down of LUZP4 (leucine zipper protein 4) [SID160740336] the results were total luciferase, z-score 0.283; total luciferase, % of control 87.5.
Against LUZP4 (leucine zipper protein 4) [SID160740337] the deposit lists total luciferase, z-score 0.35; total luciferase, % of control 88.9.
Knock-down of RNF208 (ring finger protein 208) [SID160734228] came out at: total luciferase, z-score 0.038; total luciferase, % of control 82.6.
Silencing of RNF208 (ring finger protein 208) [SID160771190] came out at: total luciferase, z-score -1.06; total luciferase, % of control 60.9.
After knock-down of RNF208 (ring finger protein 208) [SID160771192], the record shows total luciferase, z-score -0.42; total luciferase, % of control 73.5.

Reformatted: 5 of the entries above
{"target":"BMPR1B (bone morphogenetic protein receptor type 1B)","PubChem SID":"SID160728422","total luciferase, z-score":0.326,"total luciferase, % of control":88.4}
{"target":"BMPR1B (bone morphogenetic protein receptor type 1B)","PubChem SID":"SID160728433","total luciferase, z-score":1.16,"total luciferase, % of control":105}
{"target":"ISOC1 (isochorismatase domain containing 1)","PubChem SID":"SID160739856","total luciferase, z-score":"6.93 (active)","total luciferase, % of control":220}
{"target":"ISOC1 (isochorismatase domain containing 1)","PubChem SID":"SID160739857","total luciferase, z-score":-0.535,"total luciferase, % of control":71.2}
{"target":"ISOC1 (isochorismatase domain containing 1)","PubChem SID":"SID160739858","total luciferase, z-score":-0.846,"total luciferase, % of control":65.1}
